Record: PubChem BioAssay AID1259327 (Drosophila RNAi Screening Center, 2017)
Assay: 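Knock-downs altering cellular ATP with no metal added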. System: Drosophila S2R+ cells. Knock-down reagent: long dsRNA against Drosophila genes. Duration: 5 days (water added on day 4, read one day later). Challenge: water added as vehicle, no metal, one day before read-out. Read-out: 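Luciferase ATP signal per well, normalised to plate mean, duplicate average converted to z-score across plates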. Direction: ATP z-score: higher = more total ATP than typical wells; ATP luminescence: higher = more total ATP. Active means: 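Called active when the ATP z-score exceeds 1.5 or falls below -1.5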. Meaning of the calls: active = hit: ATP up or down; inactive = no clear ATP change.
In all, the deposit lists about 3,100 reagents; this is a part drawn at random. Over the whole deposit, 378 (12%) are marked active. 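Hits include both directions; z-score sign shows ATP rise or fall; raw luminescence values are not plate-normalised.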 The numbers tell different reagents against one gene apart. Names joined by + are all predicted targets of the reagent. Not stated in the record: the amount of reagent.

no.	target	dsRNA no.	ATP z-score, duplicate mean	ATP luminescence, replicate 1 (RLU)	ATP luminescence, replicate 2 (RLU)	Outcome
1	Targ	1	1.54	7.95e5	7.23e5	active
2	mbo	1	-0.751	6.65e5	5.92e5	inactive
3	mbo	2	0.383	5.34e5	4.26e5	inactive
4	mthl3 + mthl4	1	0.375	9.17e5	7.62e5	inactive
5	CG13077	1	-0.972	6.24e5	6.22e5	inactive
6	CG13077	2	-0.00946	5.12e5	3.96e5	inactive
7	Recs1	1	-0.347	2.63e5	7.76e5	inactive
8	Recs1	2	1.17	6.35e5	4.52e5	inactive
9	Vha16-3	1	-0.0279	9.30e5	8.56e5	inactive
10	Vha16-3	2	0.105	8.43e5	8.84e5	inactive
11	Ir76a	1	-4	3.06e5	3.02e5	active

Ordered by “ATP luminescence, replicate 2 (RLU)” (high to low): some entries from above
target	dsRNA no.	ATP z-score, duplicate mean	ATP luminescence, replicate 1 (RLU)	ATP luminescence, replicate 2 (RLU)	Outcome
Vha16-3	1	-0.0279	9.30e5	8.56e5	inactive
Recs1	1	-0.347	2.63e5	7.76e5	inactive
Recs1	2	1.17	6.35e5	4.52e5	inactive

The results go on:
no.	target	dsRNA no.	ATP z-score, duplicate mean	ATP luminescence, replicate 1 (RLU)	ATP luminescence, replicate 2 (RLU)	Outcome
12	Eglp3	1	0.133	7.90e5	6.91e5	inactive
13	Eglp3	2	-0.803	7.83e5	6.74e5	inactive
14	CG17075	1	-1.52	3.56e5	3.91e5	active
15	CG17075	2	-1.2	9.35e5	1.04e6	inactive
16	sand	1	0.524	7.22e5	6.12e5	inactive
17	sand	2	0.912	5.16e5	5.39e5	inactive
18	PGRP-SA	1	-1.91	6.51e5	6.21e5	active
19	Or65c	1	-0.776	4.52e5	5.77e5	inactive
20	Or65c	2	-1.84	3.57e5	3.06e5	active
21	SiaT	1	0.218	7.97e5	7.02e5	inactive
22	SiaT	2	0.595	4.68e5	5.45e5	inactive
23	CG30345	1	-0.666	6.27e5	7.16e5	inactive
24	CG30345	2	0.0256	4.62e5	4.47e5	inactive
25	CG7888	1	0.245	7.46e5	7.68e5	inactive
26	CG7888	2	0.278	4.92e5	5.05e5	inactive
27	CG8195	1	-0.334	6.98e5	6.92e5	inactive
28	CG14219	1	-0.125	6.54e5	8.08e5	inactive
29	CG14219	2	1.81	8.44e5	1.20e6	active
